Laboratory results from PMC12711579.
Results are given in words; binding and its absence hold for the method and conditions named. For some assays here: Binding can be weak; no strength is given. Values belong to the molecule of their own block, whether it stands above or below them.

How the values were obtained:
Assay in all cases: two-hybrid; Clontech Matchmaker Gold; pGADT7 (AD) and pGBKT7 (BD) fusions co-transformed into Y2H Gold yeast; serial dilutions on DDO, TDO (−His/−Leu/−Trp, screens for weak interactions) and QDO (−His/−Ade/−Leu/−Trp, screens for strong interactions); 3–5 days at 30 °C
[1] = molecular target: T1, ZYP1b (A. thaliana) (UniProt P61430)
T1 sequence: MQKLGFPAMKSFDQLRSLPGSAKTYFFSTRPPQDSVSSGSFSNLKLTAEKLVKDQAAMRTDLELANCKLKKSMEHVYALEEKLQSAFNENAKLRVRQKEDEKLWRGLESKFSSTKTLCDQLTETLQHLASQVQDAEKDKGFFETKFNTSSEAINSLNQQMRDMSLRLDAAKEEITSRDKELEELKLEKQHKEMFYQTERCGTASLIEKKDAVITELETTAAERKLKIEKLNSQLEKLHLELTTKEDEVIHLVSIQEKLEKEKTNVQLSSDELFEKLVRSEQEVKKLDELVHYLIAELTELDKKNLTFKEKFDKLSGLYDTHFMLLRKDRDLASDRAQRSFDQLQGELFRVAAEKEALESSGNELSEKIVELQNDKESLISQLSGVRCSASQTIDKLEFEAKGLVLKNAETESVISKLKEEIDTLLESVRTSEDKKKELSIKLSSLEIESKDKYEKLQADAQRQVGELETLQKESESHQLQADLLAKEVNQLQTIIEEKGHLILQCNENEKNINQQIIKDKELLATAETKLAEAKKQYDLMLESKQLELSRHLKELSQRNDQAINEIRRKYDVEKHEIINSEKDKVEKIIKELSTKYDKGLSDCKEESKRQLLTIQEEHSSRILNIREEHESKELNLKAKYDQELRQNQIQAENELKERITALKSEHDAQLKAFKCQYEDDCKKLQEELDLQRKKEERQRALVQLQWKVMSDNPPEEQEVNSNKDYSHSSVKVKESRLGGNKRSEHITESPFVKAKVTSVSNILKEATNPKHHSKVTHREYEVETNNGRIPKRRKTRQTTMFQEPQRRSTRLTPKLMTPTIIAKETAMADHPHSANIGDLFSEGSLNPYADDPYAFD

[2] = molecular target: T2, PCH2 (A. thaliana) (UniProt Q8H1F9)
T2 sequence: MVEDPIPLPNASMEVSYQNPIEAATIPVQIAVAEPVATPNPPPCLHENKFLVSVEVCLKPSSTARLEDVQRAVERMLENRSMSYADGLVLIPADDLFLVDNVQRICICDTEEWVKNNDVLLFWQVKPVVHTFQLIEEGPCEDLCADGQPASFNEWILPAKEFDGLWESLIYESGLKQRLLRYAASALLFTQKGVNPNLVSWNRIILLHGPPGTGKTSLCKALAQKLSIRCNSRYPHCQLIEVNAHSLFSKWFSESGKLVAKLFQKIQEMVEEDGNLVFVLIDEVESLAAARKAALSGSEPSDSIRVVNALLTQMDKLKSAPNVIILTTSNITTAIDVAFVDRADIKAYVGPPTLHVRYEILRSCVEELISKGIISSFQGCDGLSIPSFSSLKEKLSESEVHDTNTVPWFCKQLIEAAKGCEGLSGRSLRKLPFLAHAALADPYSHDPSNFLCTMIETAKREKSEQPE

[3] = molecular target: T3, ZYP1a (A. thaliana) (UniProt Q9LME2)
T3 sequence: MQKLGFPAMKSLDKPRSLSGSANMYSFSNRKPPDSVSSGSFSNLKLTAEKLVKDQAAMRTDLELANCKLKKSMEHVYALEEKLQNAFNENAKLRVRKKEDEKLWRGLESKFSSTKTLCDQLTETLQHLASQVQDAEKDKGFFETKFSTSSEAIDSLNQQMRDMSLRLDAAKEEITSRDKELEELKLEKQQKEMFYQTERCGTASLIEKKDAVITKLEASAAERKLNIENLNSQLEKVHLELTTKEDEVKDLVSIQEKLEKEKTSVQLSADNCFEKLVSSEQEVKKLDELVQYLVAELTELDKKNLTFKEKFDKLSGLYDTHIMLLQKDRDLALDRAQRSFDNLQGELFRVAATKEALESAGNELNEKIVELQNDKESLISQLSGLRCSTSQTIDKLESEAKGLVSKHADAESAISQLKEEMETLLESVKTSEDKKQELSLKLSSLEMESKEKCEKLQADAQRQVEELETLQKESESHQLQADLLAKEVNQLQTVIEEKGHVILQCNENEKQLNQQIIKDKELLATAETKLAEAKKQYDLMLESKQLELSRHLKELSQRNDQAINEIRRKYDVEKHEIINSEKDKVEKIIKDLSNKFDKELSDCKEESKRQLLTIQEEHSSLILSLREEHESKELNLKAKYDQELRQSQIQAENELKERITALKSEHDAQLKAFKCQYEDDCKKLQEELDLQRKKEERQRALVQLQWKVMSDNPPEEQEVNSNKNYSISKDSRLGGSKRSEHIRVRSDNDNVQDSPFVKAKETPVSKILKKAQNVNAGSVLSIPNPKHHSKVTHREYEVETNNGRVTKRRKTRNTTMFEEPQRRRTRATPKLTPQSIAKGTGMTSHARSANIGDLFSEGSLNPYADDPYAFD

[4] = molecular target: T4, HEI10 (A. thaliana) (UniProt F4HRI2)
T4 sequence: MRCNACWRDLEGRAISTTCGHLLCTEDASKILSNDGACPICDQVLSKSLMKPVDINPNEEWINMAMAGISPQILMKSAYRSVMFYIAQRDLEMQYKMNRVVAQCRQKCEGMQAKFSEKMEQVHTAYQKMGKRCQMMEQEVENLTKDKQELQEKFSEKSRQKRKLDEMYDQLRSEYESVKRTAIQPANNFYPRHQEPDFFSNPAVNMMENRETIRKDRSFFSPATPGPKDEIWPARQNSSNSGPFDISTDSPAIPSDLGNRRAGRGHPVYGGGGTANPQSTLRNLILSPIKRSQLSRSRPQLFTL

[5] = molecular target: SCEP1 (A. thaliana)
[6] = molecular target: SCEP2 (A. thaliana)
[7] = molecular target: ASY4 (A. thaliana)

Molecule: SCEP3 C terminus (residues 480–801) (from UniProt A0A1P8B5T3) (domain or fragment)
binding [2]: binds
binding [3]: binds weakly

Molecule: SCEP3 C-terminal coil (residues 714–801) (from UniProt A0A1P8B5T3) (domain or fragment)
binding [1]: binds

Molecule: SCEP3 N terminus (residues 1–397) (from UniProt A0A1P8B5T3) (domain or fragment)
binding [4]: no binding
binding [2]: binds weakly
binding [1]: binds weakly

B2: ASY3 (protein, UniProt Q0WR66 1-793)
chain: MSDYRSFGSNYHPSSQSRKISIGVMADSQPKRNLVPDKDDGDVIARVEKLKSATVTELQANKKEKSDLAAKQRNSAQVTGHVTSPWRSPRSSHRKLGTLESVLCKQTSSLSGSKGLNKGLNGAHQTPARESFQNCPISSPQHSLGELNGGRNDRVMDRSPERMEEPPSAVLQQKVASQREKMDKPGKETNGTTDVLRSKLWEILGKASPANNEDVNSETPEVEKTNFKLSQDKGSNDDPLIKPRHNSDSIETDSESPENATRRPVTRSLLQRRVGAKGVQKKTKAGANLGRKCTEQVNSVFSFEEGLRGKIGTAVNSSVMPKKQRGRRKNTVVKCRKAHSRKKDEADWSRKEASKSNTPPRSESTETGKRSSSSDKKGSSHDLHPQSKARKQKPDISTREGDFHPSPEAEAAALPEMSQGLSKNGDKHERPSNIFREKSVEPENEFQSPTFGYKAPISSPSPCCSPEASPLQPRNISPTLDETETPIFSFGTKKTSQGTTGQASDTEKRLPDFLEKKRDYSFRRESSPEPNEDLVLSDPSSDERDSDGSREDSPVLGHNISPEERETANWTNERSMLGPSSVKRNSNLKGIGRVVLSPPSPLSKGIDKTDSFQHCSEMDEDEDEGLGRAVALFAMALQNFERKLKSAAEKKSSEIIASVSEEIHLELENIKSHIITEAGKTSNLAKTKRKHAETRLQEQEEKMRMIHEKFKDDVSHHLEDFKSTIEELEANQSELKGSIKKQRTSHQKLIAHFEGGIETKLDDATKRIDSVNKSARGKMLQLKMIVAECLRDD
binding [7]: binds

Further lines, results first:

binding [1]: binds
Molecule: SCEP1 (A. thaliana)

binding [1]: binds weakly
Molecule: SCEP3 mid-coil (residues 487–579) (from UniProt A0A1P8B5T3) (domain or fragment)

binding [5]: binds weakly
binding [6]: binds weakly
B1: ZYP1b (protein, UniProt P61430 1-856)
chain: MQKLGFPAMKSFDQLRSLPGSAKTYFFSTRPPQDSVSSGSFSNLKLTAEKLVKDQAAMRTDLELANCKLKKSMEHVYALEEKLQSAFNENAKLRVRQKEDEKLWRGLESKFSSTKTLCDQLTETLQHLASQVQDAEKDKGFFETKFNTSSEAINSLNQQMRDMSLRLDAAKEEITSRDKELEELKLEKQHKEMFYQTERCGTASLIEKKDAVITELETTAAERKLKIEKLNSQLEKLHLELTTKEDEVIHLVSIQEKLEKEKTNVQLSSDELFEKLVRSEQEVKKLDELVHYLIAELTELDKKNLTFKEKFDKLSGLYDTHFMLLRKDRDLASDRAQRSFDQLQGELFRVAAEKEALESSGNELSEKIVELQNDKESLISQLSGVRCSASQTIDKLEFEAKGLVLKNAETESVISKLKEEIDTLLESVRTSEDKKKELSIKLSSLEIESKDKYEKLQADAQRQVGELETLQKESESHQLQADLLAKEVNQLQTIIEEKGHLILQCNENEKNINQQIIKDKELLATAETKLAEAKKQYDLMLESKQLELSRHLKELSQRNDQAINEIRRKYDVEKHEIINSEKDKVEKIIKELSTKYDKGLSDCKEESKRQLLTIQEEHSSRILNIREEHESKELNLKAKYDQELRQNQIQAENELKERITALKSEHDAQLKAFKCQYEDDCKKLQEELDLQRKKEERQRALVQLQWKVMSDNPPEEQEVNSNKDYSHSSVKVKESRLGGNKRSEHITESPFVKAKVTSVSNILKEATNPKHHSKVTHREYEVETNNGRIPKRRKTRQTTMFQEPQRRSTRLTPKLMTPTIIAKETAMADHPHSANIGDLFSEGSLNPYADDPYAFD
